At least one structure is not confirmed: it was looked up by name or label, or the drawing left a doubt.
Test system: carboplatin-resistant PDX glioblastoma (GBM20-75)
Experiment: Avatar CAM assay, patient-derived xenograft glioblastoma
Assay type: in vivo, human
Conditions: FIG. 3, PDX glioblastoma resistant to carboplatin
Description: In this example, representative compounds of the present disclosure were tested for their respective effect on tumors using a model of Avatar Chick Chorioallantoic Membrane (CAM) assay. CAM assays have been widely used to study angiogenesis and tumor invasion of colorectal, prostate and brain cancers, as well as for studying patient-derived xenograft for potential personalized medicine.
The present inventor has tested representative compounds from the present disclosure or a Positive Control (PCtrl: sodium 2-(2-hydroxy-3,5-dipentylphenyl)acetate) as per the following. Fertilized eggs from white leghorn chicken were used and incubated in an Ova-Easy egg incubator at 37° C. with 60% humidity. At day 3, eggs were cracked. At day 9, U87 (human glioblastoma) cell suspensions (1×10^6 cells), or Caki cells or patient-derived xenograph (glioblastoma fragment) were mixed (1:1) with growth factor reduced Matrigel™ in a total volume of 20 μl for cell lines and POX-patient fragments were placed directly on top of the CAM and were returned to the incubator. Intravenous injection at day 11 or topical administration (Day 11 to Day 16) with or without the compounds. At day 16, chick embryos were killed by decapitation. Tumours were removed and tumour volumes were calculated using the formula: (Dd^2/3).

Cn1nnc2c(C(N)=O)ncn2c1=O [Temozolomide]
growth (volume) response of PDX glioblastoma to treatment: does not respond

Reference: patent US20240043372A1, “SUBSTITUTED AROMATIC COMPOUNDS AND PHARMACEUTICAL COMPOSITIONS THEREOF” (PHARMACEUTIQUE INGENEW INC., priority 2020, published 2024)
